Common to all, as to assay: two-hybrid; mammalian two-hybrid in 293T cells (P-act / P-bind vectors, Lipofectamine 3000); firefly luciferase with Renilla as internal reference; cells untreated, with TNF-α, or with TNF-α and paeonol (PL, PM, PH)
Experiment [1] deals with NF-κB P65 (UniProt Q04207).
Experiment [2] concerns the target P50 (UniProt P25799).
The target in experiment [3] is T1, NF-κB P65, Q04207.
T1 chain: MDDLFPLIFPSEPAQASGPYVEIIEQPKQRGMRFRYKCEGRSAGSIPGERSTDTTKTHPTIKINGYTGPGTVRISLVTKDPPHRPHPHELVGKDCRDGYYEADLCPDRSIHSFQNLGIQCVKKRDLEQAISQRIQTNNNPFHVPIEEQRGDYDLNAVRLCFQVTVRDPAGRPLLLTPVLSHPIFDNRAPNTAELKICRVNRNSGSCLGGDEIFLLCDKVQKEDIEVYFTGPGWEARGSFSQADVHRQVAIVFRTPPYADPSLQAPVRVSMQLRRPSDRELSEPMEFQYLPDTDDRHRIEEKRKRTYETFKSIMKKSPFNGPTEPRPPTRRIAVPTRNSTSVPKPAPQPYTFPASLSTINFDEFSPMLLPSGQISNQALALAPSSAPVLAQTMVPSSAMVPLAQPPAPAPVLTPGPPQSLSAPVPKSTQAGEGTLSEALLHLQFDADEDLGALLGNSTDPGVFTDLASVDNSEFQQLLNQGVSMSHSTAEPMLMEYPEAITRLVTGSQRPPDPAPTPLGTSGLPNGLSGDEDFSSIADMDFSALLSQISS
Conditions: remark: other sources report otherwise.

Chains of the proteins cited; added tags and fusions are not shown.
UniProt P63158: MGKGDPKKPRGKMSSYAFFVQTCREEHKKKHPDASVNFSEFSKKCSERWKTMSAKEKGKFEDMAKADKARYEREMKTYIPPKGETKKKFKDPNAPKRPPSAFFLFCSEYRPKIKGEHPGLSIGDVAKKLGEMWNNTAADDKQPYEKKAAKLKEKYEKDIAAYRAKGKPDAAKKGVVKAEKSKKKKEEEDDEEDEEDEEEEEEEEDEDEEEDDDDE

From PMC7957162 come the findings set out here.

These are yes or no findings as the source states them, for the method shown. Some results given as binding are weak or reduced against the parent protein; the word gives no strength.

Regarding “High-mobility group box 1 (HMGB1) (from UniProt P63158 1-215)”, the binding result in experiment [1] and in experiment [2] was “binds” each time.

B1: P50, P25799 1-431 (protein)
chain: MADDDPYGTGQMFHLNTALTHSIFNAELYSPEIPLSTDGPYLQILEQPKQRGFRFRYVCEGPSHGGLPGASSEKNKKSYPQVKICNYVGPAKVIVQLVTNGKNIHLHAHSLVGKHCEDGVCTVTAGPKDMVVGFANLGILHVTKKKVFETLEARMTEACIRGYNPGLLVHSDLAYLQAEGGGDRQLTDREKEIIRQAAVQQTKEMDLSVVRLMFTAFLPDSTGSFTRRLEPVVSDAIYDSKAPNASNLKIVRMDRTAGCVTGGEEIYLLCDKVQKDDIQIRFYEEEENGGVWEGFGDFSPTDVHRQFAIVFKTPKYKDVNITKPASVFVQLRRKSDLETSEPKPFLYYPEIKDKEEVQRKRQKLMPNFSDSFGGGSGAGAGGGGMFGSGGGGGSTGSPGPGYGYSNYGFPPYGGITFHPGVTKSNAGVTHG
As to B1, the binding entry in experiment [3] is recorded as “binds”.
